The results in this text go back to patent US20250262210A1 (TRUSTEES OF COLUMBIA UNIVERSITY IN THE CITY OF NEW YORK, published 2025).

One experiment deals with T1, LZTR1 R810W-FLAG (human, UniProt Q8N653 1-840).
T1 construct: Stably expressed in U87 cells by lentivirus; also called LZTR1-FLAG-R810W; LZTR1 RW; not shown: FLAG tag
T1 sequence (looked up): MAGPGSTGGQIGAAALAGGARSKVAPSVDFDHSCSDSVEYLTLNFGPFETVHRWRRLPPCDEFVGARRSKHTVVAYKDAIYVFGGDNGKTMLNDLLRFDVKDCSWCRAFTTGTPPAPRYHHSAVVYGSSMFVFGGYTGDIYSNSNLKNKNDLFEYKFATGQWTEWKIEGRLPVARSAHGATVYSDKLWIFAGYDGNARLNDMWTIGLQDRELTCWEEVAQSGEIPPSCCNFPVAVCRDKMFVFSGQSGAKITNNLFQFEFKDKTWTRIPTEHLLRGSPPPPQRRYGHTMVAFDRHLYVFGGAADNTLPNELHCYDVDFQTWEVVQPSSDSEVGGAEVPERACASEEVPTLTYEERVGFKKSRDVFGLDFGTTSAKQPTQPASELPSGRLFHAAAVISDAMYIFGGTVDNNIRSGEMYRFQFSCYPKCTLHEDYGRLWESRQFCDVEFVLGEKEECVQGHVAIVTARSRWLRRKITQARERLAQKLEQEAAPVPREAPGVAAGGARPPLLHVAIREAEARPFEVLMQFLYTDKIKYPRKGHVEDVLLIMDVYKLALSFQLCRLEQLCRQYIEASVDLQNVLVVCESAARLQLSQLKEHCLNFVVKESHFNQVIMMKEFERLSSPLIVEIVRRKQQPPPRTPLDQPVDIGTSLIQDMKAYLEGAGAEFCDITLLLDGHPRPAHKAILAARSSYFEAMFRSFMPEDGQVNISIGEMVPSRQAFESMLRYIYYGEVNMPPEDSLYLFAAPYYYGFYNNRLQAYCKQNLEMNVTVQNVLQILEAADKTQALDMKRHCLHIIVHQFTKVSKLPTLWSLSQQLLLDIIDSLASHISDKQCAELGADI
The experiment can be described thus: IP/MS, LZTR1 R810W-FLAG, U87. The procedure:
(§1) Lysates were immunoprecipitated with FLAG affinity matrix and eluted with FLAG peptide. […] Protein gel slices were excised and in-gel digestion performed as previously described (83), with minor modifications. Gel slices were washed with 1:1 A cetonitrile and 100 mM ammonium bicarbonate for 30 min then dehydrated with 100% acetonitrile for 10 min until shrunk. The excess acetonitrile was then removed and the slices dried in speed-vacuum at room temperature for 10 min. Gel slices were reduced with 5 mM DTT for 30 min at 56° C. in an air thermostat, cooled down to room temperature, and alkylated with 11 mM IAA for 30 min with no light. Gel slices were then washed with 100 mM of ammonium bicarbonate and 100% acetonitrile for 10 min each. Excess acetonitrile was removed and dried in a speed-vacuum for 10 min at room temperature and the gel slices were re-hydrated in a solution of 25 ng/μl trypsin in 50 mM ammonium bicarbonate for 30 min on ice and digested overnight at 37° C. in an air thermostat. Digested peptides were collected and further extracted from gel slices in extraction buffer (1:2 ratio by volume of 5% formic acid:acetonitrile) at high speed, shaking in an air thermostat. […] The following modifications were used for protein identification and quantification: oxidation of methionine (M), acetylation of the protein N-terminus, and deamination for asparagine or glutamine (NQ). […]

The target of another experiment is T2, LZTR1-FLAG (human, UniProt Q8N653 1-840).
T2 construct: Expressed in HEK 293T, HeLa or U87 cells; used as cell lysate; also called LZTR1 wild type-FLAG; LZTR1 WT; not shown: FLAG tag at the C-terminus
T2 sequence (looked up): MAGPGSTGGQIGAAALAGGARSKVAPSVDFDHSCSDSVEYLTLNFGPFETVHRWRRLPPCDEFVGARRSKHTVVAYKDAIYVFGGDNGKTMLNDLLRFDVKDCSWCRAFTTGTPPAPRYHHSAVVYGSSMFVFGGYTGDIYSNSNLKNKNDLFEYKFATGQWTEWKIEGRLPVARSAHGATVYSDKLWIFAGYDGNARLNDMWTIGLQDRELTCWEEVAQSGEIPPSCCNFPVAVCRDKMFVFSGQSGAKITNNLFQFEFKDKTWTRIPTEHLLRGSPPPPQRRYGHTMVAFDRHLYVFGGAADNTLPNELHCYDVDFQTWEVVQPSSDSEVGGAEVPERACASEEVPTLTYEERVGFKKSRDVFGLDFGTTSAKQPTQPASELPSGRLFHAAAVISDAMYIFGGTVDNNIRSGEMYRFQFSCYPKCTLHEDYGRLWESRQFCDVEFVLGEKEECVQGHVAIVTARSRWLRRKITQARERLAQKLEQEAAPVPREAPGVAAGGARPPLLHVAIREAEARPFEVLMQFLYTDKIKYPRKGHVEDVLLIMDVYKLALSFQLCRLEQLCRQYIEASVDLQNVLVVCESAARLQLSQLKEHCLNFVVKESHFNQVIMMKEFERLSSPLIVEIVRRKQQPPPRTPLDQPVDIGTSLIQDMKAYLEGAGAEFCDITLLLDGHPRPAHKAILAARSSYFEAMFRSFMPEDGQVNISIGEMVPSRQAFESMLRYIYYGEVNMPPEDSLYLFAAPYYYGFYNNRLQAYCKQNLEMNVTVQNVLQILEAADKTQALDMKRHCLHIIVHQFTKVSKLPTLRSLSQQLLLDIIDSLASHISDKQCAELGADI
The experiment can be described thus: IP/MS, LZTR1 wild type-FLAG, U87. The procedure: as §1

B1: ERGIC3 (other, human, UniProt Q9Y282 1-383, looked up)
chain: MEALGKLKQFDAYPKTLEDFRVKTCGGATVTIVSGLLMLLLFLSELQYYLTTEVHPELYVDKSRGDKLKINIDVLFPHMPCAYLSIDAMDVAGEQQLDVEHNLFKQRLDKDGIPVSSEAERHELGKVEVTVFDPDSLDPDRCESCYGAEAEDIKCCNTCEDVREAYRRRGWAFKNPDTIEQCRREGFSQKMQEQKNEGCQVYGFLEVNKVAGNFHFAPGKSFQQSHVHVHDLQSFGLDNINMTHYIQHLSFGEDYPGIVNPLDHTNVTAPQASMMFQYFVKVVPTVYMKVDGEVLRTNQFSVTRHEKVANGLLGDQGLPGVFVLYELSPMMVKLTEKHRSFTHFLTGVCAIIGGMFTVAGLIDSLIYHSARAIQKKIDLGKTT
Take B1: the binding result with LZTR1 R810W-FLAG and with LZTR1-FLAG was “binds” each time.

B2: PHLDA1 (other, human, UniProt Q8WV24 1-401, looked up)
chain: MRRAPAAERLLELGFPPRCGRQEPPFPLGVTRGWGRWPIQKRREGARPVPFSERSQEDGRGPAARSSGTLWRIRTRLSLCRDPEPPPPLCLLRVSLLCALRAGGRGSRWGEDGARLLLLPPARAAGNGEAEPSGGPSYAGRMLESSGCKALKEGVLEKRSDGLLQLWKKKCCILTEEGLLLIPPKQLQHQQQQQQQQQQQQQQQPGQGPAEPSQPSGPAVASLEPPVKLKELHFSNMKTVDCVERKGKYMYFTVVMAEGKEIDFRCPQDQGWNAEITLQMVQYKNRQAILAVKSTRQKQQHLVQQQPPSQPQPQPQLQPQPQPQPQPQPQPQSQPQPQPQPKPQPQQLHPYPHPHPHPHSHPHSHPHPHPHPHPHQIPHPHPQPHSQPHGHRLLRSTSNSA
For B2, the binding result in the experiment with LZTR1 R810W-FLAG and with LZTR1-FLAG was “binds” in each case.
